This passage reports neurite formation score results from the supplement of paper PMC8047044.

The structures appear in SMILES notation. Structures can show the parent of a compound that is named as a salt. Some of the results follow. Single values are uncertain, as repeats are few or missing.

This experiment deals with Neuro-2a. The experiment in a line: neurite formation score, plate-normalized to DMSO control mean 5.04 (score (0-8 scale)); higher = more or longer neurites. As to conditions: 10 µM.
As for `Oc1ccc(Nc2nc(-c3ccc(Cl)cc3)cs2)cc1`, the neurite formation score was 1.19.

`CCN1C(=CC(C)=O)Sc2ccc(OC)cc21`: the neurite formation score was 4.76.

`N#Cc1ccc2[nH]c(O)c(-c3ccc(CN4CCOCC4)cn3)c2c1` registered a neurite formation score of 4.86.

Consider `COc1cc2ncnc(Nc3cccc(Cl)c3F)c2cc1OC(=O)N1CCN(C)C[C@H]1C`, for which the neurite formation score was determined as 3.86.

With `CN(c1ccccc1CNc1nc(Nc2ccc3c(c2)CC(=O)N3)ncc1C(F)(F)F)S(C)(=O)=O`, the neurite formation score amounted to 1.43.

As for `O=c1ncn2nc(Sc3ccc(F)cc3F)ccc2c1-c1c(Cl)cccc1Cl`, the neurite formation score amounted to 4.43.

On to `CCN(CC)CCCC(C)Nc1nc(C)cc(Nc2ccc3nc(C)cc(N)c3c2)n1` (centres undefined), for which the neurite formation score came to 6.21.

The molecule `C[C@@H]1CCNC(=O)c2cc3ccc(C(=O)Nc4nc5ccccc5n4CCCN(C)C)cc3n21` registered a neurite formation score of 5.09.

With `C[C@H]1[C@H](C)CC[C@]2(C(=O)O)CC[C@]3(C)C(=CC[C@@H]4[C@@]5(C)C[C@@H](O)[C@H](O)[C@@](C)(CO)[C@@H]5CC[C@]43C)[C@H]12` [Asiatic acid], the neurite formation score came out at 4.52.

For the molecule `Cn1sc(=O)n(Cc2ccccc2)c1=O`, the neurite formation score is 4.43.

For the molecule `O=C(Cc1ccc(-c2ccc(OCCN3CCOCC3)cc2)cn1)NCc1ccccc1` [KX2-391 dihydrochloride], the neurite formation score came out at 1.08.

Take `O=C1C(c2c(O)[nH]c3ccccc23)=Nc2ccccc21` [Indirubin]: the neurite formation score worked out at 5.52.

For the molecule `Cn1cnc2c(F)c(Nc3ccc(Br)cc3F)c(C(=O)NOCCO)cc21`, the neurite formation score was 5.21.

Molecule `O=c1cc(N2CCOCC2)oc2c(-c3cccc4c3sc3ccccc34)cccc12` showed a neurite formation score of 1.19.

With `Cn1cc(-c2ccc3ncc(Cc4ccc5ncccc5c4)n3n2)cn1`, the neurite formation score worked out at 3.43.

The molecule `CNC(=O)c1ccc(C)c(-n2c(C)cc(OCc3ccc(F)cc3F)c(Br)c2=O)c1` yielded a neurite formation score of 3.52.

Turning to `Nc1nc(Nc2ccc3c(c2)CCC(N2CCCC2)CC3)nn1-c1cc2c(nn1)-c1ccccc1CCC2` (centres undefined), the neurite formation score turned out to be 3.52.

For the molecule `Cc1cnc(Nc2ccc(OCCN3CCCC3)cc2)nc1Nc1cccc(S(=O)(=O)NC(C)(C)C)c1`, the neurite formation score worked out at 0.744.

Molecule `O=[N+]([O-])c1ccc(-c2nc(-c3ccc(F)cc3)c(-c3ccncc3)[nH]2)cc1` registered a neurite formation score of 3.43.

`S=C(NCc1ccc2c(c1)OCO2)N1CCN(c2ncnc3c2oc2ccccc23)CC1` [Amuvatinib (MP-470, HPK 56)]: the neurite formation score worked out at 2.41.

The molecule `CCn1cc(-c2ccnc3[nH]c(-c4cccc(CN(C)C)c4)cc23)c(-c2ccc(NC(=O)N(C)C)cc2)n1` came in with a neurite formation score of 3.74.

As to `CCCCCCCCCCCC(=O)OCC(CO)OC(=O)CCCCCCCCCCC` (centres undefined) [1,2-Dilauroyl-sn-glycerol], the neurite formation score came to 4.52.

In turn, `CCOc1ccn(-c2ccc(F)cc2)c(=O)c1C(=O)Nc1ccc(Oc2ccnc(N)c2Cl)c(F)c1` came in with a neurite formation score of 1.85.

As to `Cc1[nH]c(/C=C2\C(=O)Nc3ccc(S(=O)(=O)Cc4c(Cl)cccc4Cl)cc32)c(C)c1C(=O)N1CCC[C@@H]1CN1CCCC1`, the neurite formation score was 1.54.

For the molecule `O=C(Nc1ccc(CN2CCOCC2)cc1)c1ccc(-c2cccc(Cl)c2)o1`, the neurite formation score came out at 4.19.

`O=C1NC(=O)C(=Cc2ccc(-c3ccc(F)cc3)o2)S1` (stereo in doubt): the neurite formation score is 3.52.

On to `CN1CCC(COc2cnc(-c3cccc(Cn4nc(-c5cccc(C#N)c5)ccc4=O)c3)nc2)CC1`, for which the neurite formation score was -0.256.

`CCN(CCO)CCCOc1ccc2c(Nc3cc(CC(=O)Nc4cccc(F)c4)[nH]n3)ncnc2c1` [Barasertib (AZD1152-HQPA)] showed a neurite formation score of 4.08.

Regarding `O=C(NCc1ccccc1)c1csc(Nc2ccncn2)n1` [Thiazovivin], the neurite formation score came out at 4.85.

Regarding `CCS(=O)(=O)N1CCN(c2ccc(Nc3ncc(C(N)=O)c(NC4CC4)n3)cc2)CC1`, the neurite formation score was 5.19.

`Oc1cccc(-c2nc(N3CCOCC3)c3oc4ncccc4c3n2)c1` gave a neurite formation score of 5.21.

The molecule `O=C(COc1ccc(Cl)cc1)NC1CCC(NC(=O)COc2ccc(Cl)cc2)CC1` (stereo not drawn) [ISRIB (trans-isomer)] showed a neurite formation score of 4.86.

`COc1cc(Nc2ncc3c(n2)-c2ccc(Cl)cc2C(c2c(F)cccc2OC)=NC3)ccc1C(=O)O` [MLN8237 (Alisertib)] gave a neurite formation score of 1.08.

`O=C(O)c1ccc(-c2c[nH]c3ncc(-c4ccccc4)cc23)cc1C1CCCC1` registered a neurite formation score of 1.43.

As for `Cc1nc2c(-c3cnc(N)nc3)nc(N3CCOCC3)nc2n1C(C)C`, the neurite formation score was determined as 3.74.

With `CNc1nc(Nc2ccc(C(=O)N3CCOCC3)cc2OC)ncc1Cl`, the neurite formation score stood at 4.09.

In turn, `COc1ccc(S(=O)(=O)N(CCO)c2ccccc2CN(C)C/C=C/c2ccc(Cl)cc2)cc1` [KN-93 Phosphate] returned a neurite formation score of 4.19.

As to `Nc1cccc(S(=O)(=O)N2CCCN(S(=O)(=O)c3ccc4c(c3)OCCO4)CC2)c1`, the neurite formation score was 3.76.

`COc1cc2nccc(Oc3ccc(NC(=O)Nc4ccc(F)cc4F)c(F)c3)c2cc1OC` displayed a neurite formation score of 4.21.
